Source: patent publication US20180016339A1 (University of Washington, published 2018)
No constants are given. Whether binding was seen depends on the method and setting. Some binding calls cover weakened binding; strength is not graded here.

Tests used:
[1] = target: T1, biotinylated recombinant soluble MICB (human) (UniProt Q29980); assay: flow cytometry competition: biotinylated rsMICB on mouse NK cells with various concentrations of p2B10G5
T1 sequence (chain, biotinylated): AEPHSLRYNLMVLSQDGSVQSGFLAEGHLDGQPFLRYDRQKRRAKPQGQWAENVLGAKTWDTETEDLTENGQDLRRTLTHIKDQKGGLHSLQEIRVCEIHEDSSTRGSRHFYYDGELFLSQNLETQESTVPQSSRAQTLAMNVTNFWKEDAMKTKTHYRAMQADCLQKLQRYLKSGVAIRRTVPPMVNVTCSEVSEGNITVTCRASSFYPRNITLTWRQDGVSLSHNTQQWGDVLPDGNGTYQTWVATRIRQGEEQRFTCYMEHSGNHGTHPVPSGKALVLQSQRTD

[2] = target: T2, soluble MICB in culture supernatant of TC2-sMICB cells (human) (UniProt Q29980); assay: immunoprecipitation from TC2-sMICB culture supernatant with protein A-beads, immunoblot with goat anti-MICB AF1599
T2 sequence: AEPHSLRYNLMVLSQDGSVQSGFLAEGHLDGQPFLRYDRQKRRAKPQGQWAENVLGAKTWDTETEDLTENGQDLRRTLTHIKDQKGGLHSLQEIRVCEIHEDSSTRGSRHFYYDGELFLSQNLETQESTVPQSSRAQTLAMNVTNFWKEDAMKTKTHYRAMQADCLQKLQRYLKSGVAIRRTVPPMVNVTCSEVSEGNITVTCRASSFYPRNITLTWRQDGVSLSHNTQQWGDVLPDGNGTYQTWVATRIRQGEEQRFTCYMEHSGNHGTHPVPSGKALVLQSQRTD

binding [1]: binds
binding [2]: binds
B1: monoclonal antibody P2B10G5 (antibody, V domains shown)
VH: EVQLEESGPGLVKPSQSLSLTCTVTGYSITSDYAWNWIRQFPGNKLEWMGYISYSGSTNYNPSLKSRISITRDTSKNQFFLQLNSVITEDTATYYCARGGTYFDYWGQGTTLTVSS
VL: DIVLTQTTSYLSVSLGGRVTIACKASAHINNWLAWYQQKPGNAPRLLISDATSLETGVPSRFSGSGSGKDYTLSITSLQTEDVATYYCQHYWSTPWTFGGGTKLEIKR
notes: Mouse hybridoma antibody, IgG1 kappa, raised against recombinant soluble MIC; also called mAb B10G5; anti-sMIC
